No constants are given. Whether binding was seen depends on the method and setting.
Biological target: Deinococcus radiodurans HerA, wild type (Deinococcus radiodurans) (UniProt Q9RW32)
Assay: far-Western, overlay or dot blot; immunodot: proteins spotted on nitrocellulose membrane, blocked, incubated in 1 μM purified protein (100 mM NaCl, 20 mM Tris-HCl pH 7.5, 1 mM DTT, 1 mM EDTA) at 4°C overnight; checked by anti-RecJ or anti-HerA antibody; both purified

Amino acid sequences for entries named in this document (tags omitted). A change or cut given only in a name is not applied to a line headed by its entry.
UniProt Q9RW32: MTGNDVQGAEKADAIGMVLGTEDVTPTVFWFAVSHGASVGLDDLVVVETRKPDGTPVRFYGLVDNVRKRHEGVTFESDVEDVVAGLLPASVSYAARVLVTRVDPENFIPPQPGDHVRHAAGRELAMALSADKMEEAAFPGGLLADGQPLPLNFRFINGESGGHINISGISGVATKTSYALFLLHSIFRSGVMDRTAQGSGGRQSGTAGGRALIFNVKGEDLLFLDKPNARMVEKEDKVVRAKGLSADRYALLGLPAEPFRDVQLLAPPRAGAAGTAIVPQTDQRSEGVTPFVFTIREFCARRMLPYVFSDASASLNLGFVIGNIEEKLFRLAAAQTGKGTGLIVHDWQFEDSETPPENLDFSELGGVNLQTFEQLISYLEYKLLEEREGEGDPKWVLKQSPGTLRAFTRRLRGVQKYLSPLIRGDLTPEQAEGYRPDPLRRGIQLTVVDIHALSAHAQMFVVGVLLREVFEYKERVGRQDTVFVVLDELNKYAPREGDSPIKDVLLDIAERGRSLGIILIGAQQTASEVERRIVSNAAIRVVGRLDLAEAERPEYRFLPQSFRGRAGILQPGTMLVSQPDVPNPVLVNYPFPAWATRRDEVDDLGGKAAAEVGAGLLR

binding: no binding (tested: 1 μM)
B1: Escherichia coli RecJ, full length (enzyme, UniProt P21893 1-577)
chain: MKQQIQLRRREVDETADLPAELPPLLRRLYASRGVRSAQELERSVKGMLPWQQLSGVEKAVEILYNAFREGTRIIVVGDFDADGATSTALSVLAMRSLGCSNIDYLVPNRFEDGYGLSPEVVDQAHARGAQLIVTVDNGISSHAGVEHARSLGIPVIVTDHHLPGDTLPAAEAIINPNLRDCNFPSKSLAGVGVAFYLMLALRTFLRDQGWFDERNIAIPNLAELLDLVALGTVADVVPLDANNRILTWQGMSRIRAGKCRPGIKALLEVANRDAQKLAASDLGFALGPRLNAAGRLDDMSVGVALLLCDNIGEARVLANELDALNQTRKEIEQGMQIEALTLCEKLERSRDTLPGGLAMYHPEWHQGVVGILASRIKERFHRPVIAFAPAGDGTLKGSGRSIQGLHMRDALERLDTLYPGMMLKFGGHAMAAGLSLEEDKFKLFQQRFGELVTEWLDPSLLQGEVVSDGPLSPAEMTMEVAQLLRDAGPWGQMFPEPLFDGHFRLLQQRLVGERHLKVMVEPVGGGPLLDGIAFNVDTALWPDNGVREVQLAYKLDINEFRGNRSLQIIIDNIWPI
